Data published in the M2OR odorant receptor database.
Some of the results follow. Calls are pooled over several reports, among them a noisy single-well screen.

Experiments:
Conditions in all cases: stereoisomer not certain
O52R1 = tested on: T1, O52R1
T1 sequence (whole entry): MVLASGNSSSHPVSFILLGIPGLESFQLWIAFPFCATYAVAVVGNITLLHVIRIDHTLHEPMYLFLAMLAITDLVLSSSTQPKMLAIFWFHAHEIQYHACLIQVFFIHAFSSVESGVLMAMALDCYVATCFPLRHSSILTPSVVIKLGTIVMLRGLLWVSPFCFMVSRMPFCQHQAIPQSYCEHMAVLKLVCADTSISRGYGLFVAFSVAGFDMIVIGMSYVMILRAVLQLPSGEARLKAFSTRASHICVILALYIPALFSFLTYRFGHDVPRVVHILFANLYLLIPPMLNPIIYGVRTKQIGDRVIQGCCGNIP
Summary of the method: (§1)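 Values were gathered from published papers (main text and supplementary material), with extra details requested from the original authors when needed, and checked for typos and inconsistencies. Each receptor–molecule pair is called responsive (active) if the original authors judged the measured signal statistically different from baseline, and non-responsive (inactive) otherwise. Assay methods varied by source, often transient mammalian cell-line luciferase assays. Recorded details include cell line, G-protein, co-transfected protein and tags.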

O52W1 = tested on: T2, O52W1
T2 sequence (whole entry): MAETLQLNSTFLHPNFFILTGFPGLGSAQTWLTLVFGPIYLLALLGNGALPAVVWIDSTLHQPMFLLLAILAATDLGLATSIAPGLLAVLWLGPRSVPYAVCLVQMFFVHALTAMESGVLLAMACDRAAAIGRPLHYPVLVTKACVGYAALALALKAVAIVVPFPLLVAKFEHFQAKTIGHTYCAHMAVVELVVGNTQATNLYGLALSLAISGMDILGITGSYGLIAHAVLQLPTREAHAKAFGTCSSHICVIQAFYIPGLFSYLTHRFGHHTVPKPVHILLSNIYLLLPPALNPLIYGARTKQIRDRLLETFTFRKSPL
Summary of the method: as §1

O56A3 = tested on: T3, O56A3
T3 sequence (whole entry): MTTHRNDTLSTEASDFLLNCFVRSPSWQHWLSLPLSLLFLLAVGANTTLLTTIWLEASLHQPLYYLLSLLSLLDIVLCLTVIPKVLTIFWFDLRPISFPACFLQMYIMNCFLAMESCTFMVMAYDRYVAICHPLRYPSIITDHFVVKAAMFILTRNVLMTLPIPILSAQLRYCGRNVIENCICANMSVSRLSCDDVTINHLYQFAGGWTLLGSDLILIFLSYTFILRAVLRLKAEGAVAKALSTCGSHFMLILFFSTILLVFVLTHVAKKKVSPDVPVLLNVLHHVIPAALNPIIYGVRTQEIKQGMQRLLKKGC
Summary of the method: as §1

O56B1 = tested on: T4, O56B1
T4 sequence (whole entry): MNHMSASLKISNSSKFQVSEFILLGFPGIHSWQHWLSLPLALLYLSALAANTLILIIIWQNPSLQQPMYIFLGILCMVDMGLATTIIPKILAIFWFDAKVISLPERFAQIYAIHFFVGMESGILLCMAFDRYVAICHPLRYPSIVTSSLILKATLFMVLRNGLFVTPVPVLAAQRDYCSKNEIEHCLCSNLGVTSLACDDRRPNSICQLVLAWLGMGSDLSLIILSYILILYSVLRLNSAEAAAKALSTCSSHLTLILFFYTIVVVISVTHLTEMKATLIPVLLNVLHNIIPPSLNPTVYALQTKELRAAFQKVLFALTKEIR
Summary of the method: as §1

O56B4 = tested on: T5, O56B4
T5 sequence (whole entry): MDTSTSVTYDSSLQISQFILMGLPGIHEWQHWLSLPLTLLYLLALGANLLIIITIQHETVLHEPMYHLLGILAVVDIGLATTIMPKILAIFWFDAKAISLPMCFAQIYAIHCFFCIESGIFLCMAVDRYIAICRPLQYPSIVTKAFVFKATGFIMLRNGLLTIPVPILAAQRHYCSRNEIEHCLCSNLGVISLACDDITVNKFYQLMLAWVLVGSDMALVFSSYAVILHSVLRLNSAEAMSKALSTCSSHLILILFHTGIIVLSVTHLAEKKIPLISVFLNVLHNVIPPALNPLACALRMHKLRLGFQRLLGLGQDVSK
Summary of the method: as §1

O5AC2 = tested on: T6, O5AC2
T6 sequence (whole entry): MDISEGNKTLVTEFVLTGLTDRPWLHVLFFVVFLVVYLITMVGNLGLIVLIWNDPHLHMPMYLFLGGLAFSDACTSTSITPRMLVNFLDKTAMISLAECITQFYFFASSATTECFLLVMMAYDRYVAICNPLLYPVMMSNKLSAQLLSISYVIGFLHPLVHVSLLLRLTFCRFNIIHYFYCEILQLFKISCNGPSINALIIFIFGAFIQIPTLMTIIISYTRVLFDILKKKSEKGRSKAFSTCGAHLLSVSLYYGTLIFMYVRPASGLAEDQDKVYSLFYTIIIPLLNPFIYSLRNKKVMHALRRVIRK
Summary of the method: as §1

O5AK2 = tested on: T7, O5AK2
T7 sequence (whole entry): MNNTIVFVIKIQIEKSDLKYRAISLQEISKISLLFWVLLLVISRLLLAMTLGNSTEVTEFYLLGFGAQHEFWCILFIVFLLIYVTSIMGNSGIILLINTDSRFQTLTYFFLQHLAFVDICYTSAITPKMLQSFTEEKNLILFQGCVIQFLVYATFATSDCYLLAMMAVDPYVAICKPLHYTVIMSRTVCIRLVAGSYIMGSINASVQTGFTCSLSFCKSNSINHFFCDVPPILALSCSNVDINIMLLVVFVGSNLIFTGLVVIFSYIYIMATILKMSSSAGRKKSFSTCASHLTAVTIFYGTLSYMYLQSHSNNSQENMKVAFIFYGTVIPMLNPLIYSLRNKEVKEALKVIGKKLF
Summary of the method: as §1

O5AK3 = tested on: T8, O5AK3
T8 sequence (whole entry): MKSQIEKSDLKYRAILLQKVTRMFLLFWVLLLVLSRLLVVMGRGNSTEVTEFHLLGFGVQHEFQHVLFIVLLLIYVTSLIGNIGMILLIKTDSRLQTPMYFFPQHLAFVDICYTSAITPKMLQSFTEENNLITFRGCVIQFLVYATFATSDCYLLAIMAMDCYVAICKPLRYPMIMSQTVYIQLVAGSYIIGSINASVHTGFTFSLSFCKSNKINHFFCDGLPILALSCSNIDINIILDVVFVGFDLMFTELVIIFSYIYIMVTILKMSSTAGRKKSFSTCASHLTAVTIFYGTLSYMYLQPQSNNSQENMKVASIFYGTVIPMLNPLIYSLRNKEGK
Summary of the method: as §1

O5AL1 = tested on: T9, O5AL1
T9 sequence (whole entry): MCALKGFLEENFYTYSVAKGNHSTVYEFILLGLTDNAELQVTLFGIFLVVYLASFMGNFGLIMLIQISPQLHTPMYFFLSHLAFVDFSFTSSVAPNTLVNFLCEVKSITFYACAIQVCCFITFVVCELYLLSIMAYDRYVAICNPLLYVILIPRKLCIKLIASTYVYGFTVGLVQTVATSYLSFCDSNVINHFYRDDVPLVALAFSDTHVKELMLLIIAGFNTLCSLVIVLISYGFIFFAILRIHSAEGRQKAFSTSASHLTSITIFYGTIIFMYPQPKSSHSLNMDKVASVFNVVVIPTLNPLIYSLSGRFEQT
Summary of the method: as §1

O5AP2 = tested on: T10, O5AP2
T10 sequence (whole entry): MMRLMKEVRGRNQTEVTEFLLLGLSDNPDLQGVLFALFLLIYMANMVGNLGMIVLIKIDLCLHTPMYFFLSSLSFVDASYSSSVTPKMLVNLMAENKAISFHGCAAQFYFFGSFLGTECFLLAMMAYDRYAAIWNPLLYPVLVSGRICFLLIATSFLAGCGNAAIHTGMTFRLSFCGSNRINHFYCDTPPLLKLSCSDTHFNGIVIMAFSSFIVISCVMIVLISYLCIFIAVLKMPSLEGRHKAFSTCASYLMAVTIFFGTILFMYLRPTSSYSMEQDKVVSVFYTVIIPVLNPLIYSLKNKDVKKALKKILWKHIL
Summary of the method: as §1

Measured: odorant receptor agonist call

CCC(C)=O
inactive: all assays above
